Results as given in PMC4360653.
Results are given in words; binding and its absence hold for the method and conditions named. Some binding calls cover weakened binding; strength is not graded here.

Target: T1, TMEM16A (human (endogenous in HEK293T)) (UniProt Q5XXA6)
T1 sequence: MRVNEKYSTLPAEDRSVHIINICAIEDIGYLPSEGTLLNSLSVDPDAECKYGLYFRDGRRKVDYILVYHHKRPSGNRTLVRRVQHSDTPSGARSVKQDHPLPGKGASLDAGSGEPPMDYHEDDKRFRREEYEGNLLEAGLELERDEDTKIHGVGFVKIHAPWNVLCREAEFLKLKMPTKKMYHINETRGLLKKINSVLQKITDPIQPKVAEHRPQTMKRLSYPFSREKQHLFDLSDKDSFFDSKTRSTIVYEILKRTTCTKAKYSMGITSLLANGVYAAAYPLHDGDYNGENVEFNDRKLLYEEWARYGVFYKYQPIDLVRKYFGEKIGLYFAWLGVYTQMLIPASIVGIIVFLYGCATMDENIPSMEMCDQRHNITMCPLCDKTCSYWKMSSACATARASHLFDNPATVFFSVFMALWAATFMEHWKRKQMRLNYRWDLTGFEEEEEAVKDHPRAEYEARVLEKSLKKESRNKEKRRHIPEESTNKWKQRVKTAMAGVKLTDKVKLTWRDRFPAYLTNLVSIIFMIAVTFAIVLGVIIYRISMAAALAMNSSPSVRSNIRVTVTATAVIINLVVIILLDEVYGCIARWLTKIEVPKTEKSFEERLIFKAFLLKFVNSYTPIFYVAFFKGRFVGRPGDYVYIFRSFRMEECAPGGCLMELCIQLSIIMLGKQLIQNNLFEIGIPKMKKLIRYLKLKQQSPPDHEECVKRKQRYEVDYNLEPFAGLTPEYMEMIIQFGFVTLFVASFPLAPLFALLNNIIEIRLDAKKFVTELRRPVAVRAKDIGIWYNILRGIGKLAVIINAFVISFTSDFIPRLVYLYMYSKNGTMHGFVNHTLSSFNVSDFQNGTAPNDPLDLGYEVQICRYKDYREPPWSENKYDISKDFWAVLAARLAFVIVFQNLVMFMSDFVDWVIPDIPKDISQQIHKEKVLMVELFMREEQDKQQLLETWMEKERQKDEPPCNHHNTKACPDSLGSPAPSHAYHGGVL
Assay: flow cytometry on cells; intact HEK293T cells (4 × 10^5 cells/sample, FcR blocked) stained with N-CLCA1/SA-PE tetramers (1:50) in PBS with 1% BSA at 4°C; SA-PE alone as background; with or without pre-incubation with anti-TMEM16A antibody S-20 (1:10) or control antibodies C-5 and G-19; only the binder purified

binding: binds
B1: N-terminal fragment of CLCA1 (22–694; N-CLCA1), biotinylated and coupled to SA-PE (domain or fragment, UniProt A8K7I4 22-694)
chain: NSLIQLNNNGYEGIVVAIDPNVPEDETLIQQIKDMVTQASLYLLEATGKRFYFKNVAILIPETWKTKADYVRPKLETYKNADVLVAESTPPGNDEPYTEQMGNCGEKGERIHLTPDFIAGKKLAEYGPQGRAFVHEWAHLRWGVFDEYNNDEKFYLSNGRIQAVRCSAGITGTNVVKKCQGGSCYTKRCTFNKVTGLYEKGCEFVLQSRQTEKASIMFAQHVDSIVEFCTEQNHNKEAPNKQNQKCNLRSTWEVIRDSEDFKKTTPMTTQPPNPTFSLLQIGQRIVCLVLDKSGSMATGNRLNRLNQAGQLFLLQTVELGSWVGMVTFDSAAHVQNELIQINSGSDRDTLAKRLPAAASGGTSICSGLRSAFTVIRKKYPTDGSEIVLLTDGEDNTISGCFNEVKQSGAIIHTVALGPSAAQELEELSKMTGGLQTYASDQVQNNGLIDAFGALSSGNGAVSQRSIQLESKGLTLQNSQWMNGTVIVDSTVGKDTLFLITWTMQPPQILLWDPSGQKQGGFVVDKNTKMAYLQIPGIAKVGTWKYSLQASSQTLTLTVTSRASNATLPPITVTSKTNKDTSKFPSPLVVYANIRQGASPILRASVTALIESVNGKTVTLELLDNGAGADATKDDGVYSRYFTTYDTNGRYSVKVRALGGVNAARRRVIPQQSG
modifications: biotin on the C-terminal BirA biotin ligase recognition motif
